Results are given in words; binding and its absence hold for the method and conditions named.

The target of the assay is Se-glycosyltransferase SenB from Variovorax paradoxus (Variovorax paradoxus). Put plainly: SEC; HiLoad 16/600 Superdex 75; 20 mM Tris-HCl pH 7.5, 150 mM NaCl, 1 mM DTT; both purified. (In general: In gel filtration, larger molecules generally elute earlier.)

B1: Se-glycosyltransferase SenB from Variovorax paradoxus (enzyme, UniProt A0ACH4EUC8 1-331)
chain: MSNPSLVIVSPALPGANNGNWRTAQRWKALLSPVCSARVVQQWPDADASADTVMLALHARRSAESIAHWAHAHPGRGLGVVLTGTDLYQDIGSDPQAQRSLQLAQRLVVLQALGAEALPPECRAKARVVYQSTSARAELPKSARQLRAVMVGHLRQVKSPQTLFDAARLLCGREDIRIDHIGDAGDAGLGELARALASDCPGYRWLGALPHAQTRQRIQRAHVLVHTSALEGGAHVIMEAVRSGTPVLASRVPGNVGMLGNDYAGYFPHGDAAALAALLEACRAGQGSKDRAAGLLDSLRTQCALRAPLFDPRAEQAALFQLLNELQPPPP
For the molecule B1, the binding entry is “no binding”.

The values are drawn from PMC10891094, “Substrate binding and catalytic mechanism of the Se-glycosyltransferase SenB in the biosynthesis of selenoneine” (Nature Communications, 2024).
